Data as given in the supplement of paper PMC12819154, “High-throughput peptide-centric local stability assay extends protein–ligand identification to membrane proteins, tissues and bacteria” (Nature Structural & Molecular Biology, 2025).
The other results are listed elsewhere or left out. Small differences around the control level are noise.

Amino acid sequences for entries named in this document (tags omitted). A change or cut given only in a name is not applied to a line headed by its entry.
UniProt P14901: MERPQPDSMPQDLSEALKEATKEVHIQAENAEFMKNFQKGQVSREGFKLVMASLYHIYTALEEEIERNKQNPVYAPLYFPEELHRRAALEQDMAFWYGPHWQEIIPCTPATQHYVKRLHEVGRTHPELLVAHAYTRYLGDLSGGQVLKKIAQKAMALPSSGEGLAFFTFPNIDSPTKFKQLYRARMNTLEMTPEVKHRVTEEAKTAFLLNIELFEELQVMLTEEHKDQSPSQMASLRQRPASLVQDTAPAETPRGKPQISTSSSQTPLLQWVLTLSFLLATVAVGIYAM
UniProt P05202: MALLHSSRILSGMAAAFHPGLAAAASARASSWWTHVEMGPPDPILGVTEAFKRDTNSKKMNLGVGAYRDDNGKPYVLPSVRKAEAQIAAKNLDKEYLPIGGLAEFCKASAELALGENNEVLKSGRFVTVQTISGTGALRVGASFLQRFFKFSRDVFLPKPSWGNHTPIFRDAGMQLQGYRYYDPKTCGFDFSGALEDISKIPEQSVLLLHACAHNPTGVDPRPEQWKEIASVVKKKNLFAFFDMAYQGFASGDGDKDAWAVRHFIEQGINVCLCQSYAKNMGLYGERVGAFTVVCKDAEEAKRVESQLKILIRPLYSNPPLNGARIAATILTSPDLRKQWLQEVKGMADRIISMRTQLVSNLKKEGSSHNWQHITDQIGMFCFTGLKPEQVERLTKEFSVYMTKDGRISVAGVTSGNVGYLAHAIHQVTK
UniProt P06800: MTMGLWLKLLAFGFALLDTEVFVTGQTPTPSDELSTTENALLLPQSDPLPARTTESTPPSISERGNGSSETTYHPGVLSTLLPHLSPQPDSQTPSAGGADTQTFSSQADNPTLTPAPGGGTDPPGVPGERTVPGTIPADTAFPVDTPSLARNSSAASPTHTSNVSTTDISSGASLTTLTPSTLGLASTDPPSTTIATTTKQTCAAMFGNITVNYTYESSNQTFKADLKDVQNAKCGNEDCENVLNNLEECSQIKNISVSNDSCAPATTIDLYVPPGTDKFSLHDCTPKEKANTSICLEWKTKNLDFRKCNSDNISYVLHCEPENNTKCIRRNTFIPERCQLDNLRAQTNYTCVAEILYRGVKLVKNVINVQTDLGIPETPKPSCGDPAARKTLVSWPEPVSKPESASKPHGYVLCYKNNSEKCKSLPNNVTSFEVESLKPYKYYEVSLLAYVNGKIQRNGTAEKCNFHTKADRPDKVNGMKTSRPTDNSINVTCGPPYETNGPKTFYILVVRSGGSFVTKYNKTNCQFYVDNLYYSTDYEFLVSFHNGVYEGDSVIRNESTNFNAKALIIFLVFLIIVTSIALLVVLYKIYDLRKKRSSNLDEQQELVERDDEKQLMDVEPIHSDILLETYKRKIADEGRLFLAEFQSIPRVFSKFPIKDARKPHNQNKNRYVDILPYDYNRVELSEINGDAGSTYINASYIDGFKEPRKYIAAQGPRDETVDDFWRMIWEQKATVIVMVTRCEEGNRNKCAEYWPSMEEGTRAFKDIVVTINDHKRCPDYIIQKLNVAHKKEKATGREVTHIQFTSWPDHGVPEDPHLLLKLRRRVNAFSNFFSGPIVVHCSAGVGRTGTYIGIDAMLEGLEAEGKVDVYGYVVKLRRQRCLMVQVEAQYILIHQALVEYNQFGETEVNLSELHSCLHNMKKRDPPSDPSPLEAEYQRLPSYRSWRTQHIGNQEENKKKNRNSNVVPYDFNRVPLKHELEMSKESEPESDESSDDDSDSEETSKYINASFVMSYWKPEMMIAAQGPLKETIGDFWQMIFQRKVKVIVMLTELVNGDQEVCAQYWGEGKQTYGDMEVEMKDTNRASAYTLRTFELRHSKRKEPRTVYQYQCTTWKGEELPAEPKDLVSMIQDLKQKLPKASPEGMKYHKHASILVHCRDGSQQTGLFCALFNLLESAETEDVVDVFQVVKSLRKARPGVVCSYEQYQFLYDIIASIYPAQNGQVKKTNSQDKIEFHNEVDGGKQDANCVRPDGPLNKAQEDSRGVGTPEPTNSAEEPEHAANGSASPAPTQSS
UniProt P07214: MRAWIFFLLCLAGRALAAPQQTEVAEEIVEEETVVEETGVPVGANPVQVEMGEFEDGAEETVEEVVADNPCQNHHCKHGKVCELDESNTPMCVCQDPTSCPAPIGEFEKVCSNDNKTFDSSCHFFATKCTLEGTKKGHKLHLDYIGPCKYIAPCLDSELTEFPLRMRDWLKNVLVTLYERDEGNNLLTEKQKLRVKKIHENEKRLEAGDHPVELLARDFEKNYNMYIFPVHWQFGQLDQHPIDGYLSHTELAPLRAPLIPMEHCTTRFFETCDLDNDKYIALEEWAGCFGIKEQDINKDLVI
UniProt P15116: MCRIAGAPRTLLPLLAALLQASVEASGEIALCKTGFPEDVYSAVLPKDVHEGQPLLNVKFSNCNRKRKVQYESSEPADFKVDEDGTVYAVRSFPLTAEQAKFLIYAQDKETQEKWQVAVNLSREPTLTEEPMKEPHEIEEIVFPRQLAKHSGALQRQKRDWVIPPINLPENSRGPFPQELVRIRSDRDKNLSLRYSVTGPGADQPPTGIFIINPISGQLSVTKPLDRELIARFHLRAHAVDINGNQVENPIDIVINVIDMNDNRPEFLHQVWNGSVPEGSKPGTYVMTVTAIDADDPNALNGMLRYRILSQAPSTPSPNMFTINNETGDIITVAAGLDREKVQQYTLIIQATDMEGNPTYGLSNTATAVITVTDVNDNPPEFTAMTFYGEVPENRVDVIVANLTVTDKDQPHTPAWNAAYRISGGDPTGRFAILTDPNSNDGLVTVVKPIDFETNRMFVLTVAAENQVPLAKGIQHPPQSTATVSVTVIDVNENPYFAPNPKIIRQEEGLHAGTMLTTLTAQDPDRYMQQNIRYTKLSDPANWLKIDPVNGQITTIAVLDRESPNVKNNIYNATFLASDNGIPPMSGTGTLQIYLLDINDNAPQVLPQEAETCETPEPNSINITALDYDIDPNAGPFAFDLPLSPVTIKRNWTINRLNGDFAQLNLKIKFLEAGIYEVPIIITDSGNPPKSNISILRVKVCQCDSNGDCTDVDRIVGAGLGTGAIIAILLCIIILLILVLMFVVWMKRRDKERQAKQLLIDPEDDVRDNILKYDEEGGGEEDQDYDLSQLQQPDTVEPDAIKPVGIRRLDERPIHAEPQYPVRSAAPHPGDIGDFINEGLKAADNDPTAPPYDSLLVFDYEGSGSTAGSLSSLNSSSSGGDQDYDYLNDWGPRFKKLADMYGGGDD
UniProt P11438: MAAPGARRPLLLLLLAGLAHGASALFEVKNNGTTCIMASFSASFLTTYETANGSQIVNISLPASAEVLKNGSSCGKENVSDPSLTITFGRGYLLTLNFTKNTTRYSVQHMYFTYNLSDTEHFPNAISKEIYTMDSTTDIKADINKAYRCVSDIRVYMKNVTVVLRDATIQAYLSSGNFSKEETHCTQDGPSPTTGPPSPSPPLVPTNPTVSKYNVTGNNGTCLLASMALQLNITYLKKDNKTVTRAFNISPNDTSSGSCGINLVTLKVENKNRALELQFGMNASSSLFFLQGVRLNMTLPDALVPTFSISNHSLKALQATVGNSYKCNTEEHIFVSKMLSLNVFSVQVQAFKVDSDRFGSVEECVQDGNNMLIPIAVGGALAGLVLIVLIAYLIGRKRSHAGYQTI
UniProt P15530: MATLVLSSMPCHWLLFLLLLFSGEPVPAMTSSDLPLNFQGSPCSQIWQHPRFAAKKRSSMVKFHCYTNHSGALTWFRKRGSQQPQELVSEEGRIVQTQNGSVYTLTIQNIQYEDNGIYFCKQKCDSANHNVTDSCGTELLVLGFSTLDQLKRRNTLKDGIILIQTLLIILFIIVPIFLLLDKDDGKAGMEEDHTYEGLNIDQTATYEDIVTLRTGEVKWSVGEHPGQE

Compound: CN[C@@H]1C[C@H]2O[C@@](C)([C@@H]1OC)n1c3ccccc3c3c4c(c5c6ccccc6n2c5c31)C(=O)NC4 [staurosporine]
Assay: log2 fold change of tryptic peptide abundance, ligand vs vehicle (limited proteolysis) (log2 ratio); higher = more trypsin-susceptible (destabilized)
Details: ligand concentration: 20 uM; sample: mouse liver crude lysate; replicate design: treated separately

Target	log2 fold change
UniProt P14901 (peptide sequence: YLGDLSGGQVLKK, peptide start residue: 137)	-0.739
UniProt P14148 (peptide sequence: TTHFVEGGDAGNREDQINR, peptide start residue: 246)	0.16
UniProt P05202 (peptide sequence: VGAFTVVCKDAEEAK, peptide start residue: 288)	-0.27
UniProt P06800 (peptide sequence: SSNLDEQQELVERDDEK, peptide start residue: 598)	0.427
UniProt P07214 (peptide sequence: LEAGDHPVELLAR, peptide start residue: 205)	-0.14
UniProt P15116 (peptide sequence: GPFPQELVR, peptide start residue: 174)	0.359
UniProt P11438 (peptide sequence: SHAGYQTI, peptide start residue: 399)	0.266
UniProt P15530 (peptide sequence: WSVGEHPGQE, peptide start residue: 219)	-0.279
